“And” between values parts separate entries of the source, which are not always exact repeats. Identical values can stand only once. This continues a long series; more values of the same kind are listed elsewhere.
What was measured:
[1] = system: spinal nerve ligation induced tactile allodynia; test: Spinal nerve ligation (SNL, Chung model) induced tactile allodynia (von Frey filaments); format: in vivo, rat; settings: compound 2 50 mg/kg p.o., individual animals
FCA induced edema = FCA induced edema (paw volume); format: in vivo, rat; settings: FCA/Compound 2, 30 mg/kg p.o., individual animals
Procedure: Compound 2 was evaluated in the rat Freund's complete adjuvant (FCA) model of inflammatory pain. The rat Freund's complete adjuvant (FCA) intraplantar model of inflammatory pain produces behaviors similar to those observed in patients and has been widely used to assess novel pharmacological treatments (Lam et al., 2008, J Ethnopharmacol. 120:44-50). The positive control was celecoxib (TRC, Montreal), and the negative control was vehicle (0.5% methyl cellulose, in phosphate buffered saline). […] The Hargreaves apparatus was obtained from Ugo Basile, Italy. The Freund's complete adjuvant was obtained from Sigma, St. Louis, and the electronic von frey was obtained from Stoelting, Ill. For this assay, paw withdrawal latency to a thermal stimulus was assessed using a radiant heat source (Ugo Basile, Italy) aimed at the plantar surface of the left hind paw (Hargreaves test; […] Paw withdrawal thresholds to a non-noxious tactile stimulus was assessed using an electronic von Frey apparatus that presented an increasing mechanical force to the plantar surface of the hind paw. Paw volume was measured by displacement of water and assuming a tissue density equal to that of water. […] Celecoxib (30 mg/kg p.o.) served as the positive control. […] After induction of anesthesia, the injection site was prepared in a sterile manner and 100 μl of a 50% suspension of FCA injected. After injection, animals were weighed and allowed to recover before being returned to their home cages. Statistical significance was determined on untransformed data using a two-way analysis of variance (Graphpad Prism, NC). Significant main effects were analyzed further by subsequent Bonferronni post-hoc test. The level of significance was set at p<0.05. Data are shown as mean±S.E.M. (with an asterisk to denote significance as compared to vehicle treated controls).

## CC1(C)SC(Nc2ccccc2O)=N[C@@H]1C(=O)O [Compound 2, (R)-2-(2-hydroxyphenylamino)-thiazoline-5,5-dimethyl-4-carboxylic acid]
[1]; FIG. 24, fasted animals, Pre-Sx
  Paw withdrawal threshold: 15 g
[1]; FIG. 24, fasted, 3 hrs (D1), 50 mg/kg
  Paw withdrawal threshold: 4.23 g and 10.04 g and 6.64 g (2×) and 3.13 g and 5.04 g (2×) and 1.56 g
[1]; FIG. 24, fasted, 3 hrs (D3), 50 mg/kg
  Paw withdrawal threshold: 6.58 g (3×) and 4.47 g and 3.13 g and 4.25 g and 3.67 g and 4.4 g
[1]; FIG. 24, fasted, 5 hrs (D1), 50 mg/kg
  Paw withdrawal threshold: 5.04 g (2×) and 7.31 g and 3.55 g and 1.85 g and 3.72 g and 3.67 g and 3.13 g
[1]; FIG. 24, fasted, 5 hrs (D3), 50 mg/kg
  Paw withdrawal threshold: 2.81 g (2×) and 4.25 g (2×) and 6.66 g and 1.85 g and 6.64 g (2×)
[1]; FIG. 24, fasted, Pre-Drug (D1), 50 mg/kg
  Paw withdrawal threshold: 6.58 g and 4.4 g and 2.75 g and 1.4 g and 2.81 g (2×) and 5.04 g and 1.18 g
[1]; FIG. 24, fasted, Pre-Drug (D3), 50 mg/kg
  Paw withdrawal threshold: 4.25 g and 8.44 g and 2.81 g and 1.4 g and 4.98 g and 6.4 g and 2 g and 3.33 g
[1]; non-fasted, 1 hr (D2), 50 mg/kg
  Paw withdrawal threshold: 6.66 g and 1.18 g and 2.37 g
[1]; non-fasted, 1 hr (D3), 50 mg/kg
  Paw withdrawal threshold: 0.78 g and 6.58 g and 3.67 g and 4.72 g and 2.81 g and 5.57 g and 1.85 g and 1.19 g
[1]; non-fasted, 3 hrs (D2), 50 mg/kg
  Paw withdrawal threshold: 1.65 g and 4.47 g and 2.81 g (2×) and 3.58 g and 2.65 g and 6.58 g and 3.33 g
[1]; non-fasted, 3 hrs (D3), 50 mg/kg
  Paw withdrawal threshold: 1.18 g and 1.85 g (2×) and 5.57 g and 2.81 g and 4.72 g and 3.13 g (2×)
FCA induced edema; 1 hr (D2)
  Paw volume: 2.5 mL and 2.7 mL (3×) and 2.6 mL and 2.9 mL and 2.4 mL and 3.2 mL
FCA induced edema; 1 hr
  Paw volume: 3 mL and 2.8 mL (2×) and 2.9 mL and 2.5 mL and 3.1 mL and 2.7 mL
FCA induced edema; 3 hrs (D2)
  Paw volume: 2.5 mL and 2.7 mL (2×) and 2.6 mL and 2.8 mL and 2.9 mL and 2.4 mL and 3 mL
FCA induced edema; 3 hrs
  Paw volume: 2.8 mL (2×) and 2.9 mL and 2.7 mL (2×) and 3 mL and 2.6 mL and 3.2 mL
FCA induced edema; Pre-Drug (D2)
  Paw volume: 2.4 mL (2×) and 2.7 mL (2×) and 2.6 mL and 2.8 mL and 2.9 mL and 3.1 mL
